PubChem BioAssay AID1508597 – Cure First | 2020

Purpose: 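Survival screen with siRNA in ovarian cancer cells derived from patients, with or without rucaparib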 (primary screen)
Cells: human ovarian carcinoma lines grown from tumours: OCI-P5x (papillary serous) and OCI-C5x (clear cell)
Knock-down reagent: siRNA pool against human genes, 1.25 pmol siRNA per well
Duration: 72 h or 96 h, depending on the cell culture
Treatment: rucaparib 20 µM (about IC30) or vehicle, present until read-out
Measurement: 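Luminescent ATP-based viability assay read 72 or 96 h after transfection, depending on culture, given as normalised percent viability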
Scale: viability, normalised: higher = more viable cells remaining
Call rule: 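Active when normalised viability falls below 80 percent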
Calls: active = viability under 80%; inactive = viability 80% or more
The whole screen tested about 2,100 reagents; this is a part drawn at random. 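Calls flag viability under 80% in either arm, not effects specific to rucaparib; the reference for percent is not stated.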 Reagent sequences are not shown. Not given: the 100% reference.

SMPDL3B (sphingomyelin phosphodiesterase acid like 3B), rucaparib or vehicle Rucaparib, cell line OCI-C5x (clear cell), technical replicate 1 scored viability, normalised (%) = 57.5; active. SMPDL3B (sphingomyelin phosphodiesterase acid like 3B), rucaparib or vehicle Rucaparib, cell line OCI-C5x (clear cell), technical replicate 2 scored viability, normalised (%) = 68.2; active. For SMPDL3B (sphingomyelin phosphodiesterase acid like 3B), rucaparib or vehicle Rucaparib, cell line OCI-C5x (clear cell), technical replicate 3, the values are viability, normalised (%) = 43.9; active. SMPDL3B (sphingomyelin phosphodiesterase acid like 3B), rucaparib or vehicle Rucaparib, cell line OCI-P5x (serous), technical replicate 1 scored viability, normalised (%) = 85.1; inactive. SMPDL3B (sphingomyelin phosphodiesterase acid like 3B), rucaparib or vehicle Rucaparib, cell line OCI-P5x (serous), technical replicate 2 scored viability, normalised (%) = 80.4; inactive. SMPDL3B (sphingomyelin phosphodiesterase acid like 3B), rucaparib or vehicle Rucaparib, cell line OCI-P5x (serous), technical replicate 3 scored viability, normalised (%) = 88.9; inactive.

SMPDL3B (sphingomyelin phosphodiesterase acid like 3B), rucaparib or vehicle Vehicle, cell line OCI-C5x (clear cell), technical replicate 1 showed viability, normalised (%) = 56.7; active. For SMPDL3B (sphingomyelin phosphodiesterase acid like 3B), rucaparib or vehicle Vehicle, cell line OCI-C5x (clear cell), technical replicate 2, the values are viability, normalised (%) = 50.4; active. With SMPDL3B (sphingomyelin phosphodiesterase acid like 3B), rucaparib or vehicle Vehicle, cell line OCI-C5x (clear cell), technical replicate 3 the deposit lists viability, normalised (%) = 57.1; active. With SMPDL3B (sphingomyelin phosphodiesterase acid like 3B), rucaparib or vehicle Vehicle, cell line OCI-P5x (serous), technical replicate 1, the entry reads viability, normalised (%) = 71.9; active. SMPDL3B (sphingomyelin phosphodiesterase acid like 3B), rucaparib or vehicle Vehicle, cell line OCI-P5x (serous), technical replicate 2 gave viability, normalised (%) = 69.2; active. SMPDL3B (sphingomyelin phosphodiesterase acid like 3B), rucaparib or vehicle Vehicle, cell line OCI-P5x (serous), technical replicate 3 showed viability, normalised (%) = 76.4; active.

Looked up above.
Result for SMPDL3B (sphingomyelin phosphodiesterase acid like 3B), rucaparib or vehicle Vehicle, cell line OCI-P5x (serous), technical replicate 2 under “activity call”: active
Under “viability, normalised (%)”, SMPDL3B (sphingomyelin phosphodiesterase acid like 3B), rucaparib or vehicle Rucaparib, cell line OCI-C5x (clear cell), technical replicate 1 reads 57.5
For “viability, normalised (%)”, SMPDL3B (sphingomyelin phosphodiesterase acid like 3B), rucaparib or vehicle Vehicle, cell line OCI-C5x (clear cell), technical replicate 1 shows 56.7

Next records:
KDM5D (lysine demethylase 5D), rucaparib or vehicle Rucaparib, cell line OCI-C5x (clear cell), technical replicate 1 showed viability, normalised (%) = 57.2; active. KDM5D (lysine demethylase 5D), rucaparib or vehicle Rucaparib, cell line OCI-C5x (clear cell), technical replicate 2 showed viability, normalised (%) = 39.4; active. KDM5D (lysine demethylase 5D), rucaparib or vehicle Rucaparib, cell line OCI-C5x (clear cell), technical replicate 3 gave viability, normalised (%) = 35.3; active. KDM5D (lysine demethylase 5D), rucaparib or vehicle Rucaparib, cell line OCI-P5x (serous), technical replicate 1 showed viability, normalised (%) = 50.8; active. KDM5D (lysine demethylase 5D), rucaparib or vehicle Rucaparib, cell line OCI-P5x (serous), technical replicate 2 scored viability, normalised (%) = 54.3; active. For KDM5D (lysine demethylase 5D), rucaparib or vehicle Rucaparib, cell line OCI-P5x (serous), technical replicate 3, the values are viability, normalised (%) = 55.9; active.

KDM5D (lysine demethylase 5D), rucaparib or vehicle Vehicle, cell line OCI-C5x (clear cell), technical replicate 1 gave viability, normalised (%) = 36.1; active. For KDM5D (lysine demethylase 5D), rucaparib or vehicle Vehicle, cell line OCI-C5x (clear cell), technical replicate 2 the deposit lists viability, normalised (%) = 53.8; active. For KDM5D (lysine demethylase 5D), rucaparib or vehicle Vehicle, cell line OCI-C5x (clear cell), technical replicate 3, the entry reads viability, normalised (%) = 48; active. KDM5D (lysine demethylase 5D), rucaparib or vehicle Vehicle, cell line OCI-P5x (serous), technical replicate 1 gave viability, normalised (%) = 67; active. For KDM5D (lysine demethylase 5D), rucaparib or vehicle Vehicle, cell line OCI-P5x (serous), technical replicate 2, the entry reads viability, normalised (%) = 71.9; active. For KDM5D (lysine demethylase 5D), rucaparib or vehicle Vehicle, cell line OCI-P5x (serous), technical replicate 3, the values are viability, normalised (%) = 56.5; active.
